Data: patent publication US6660837
No constants are given. Whether binding was seen depends on the method and setting. Binding seen in cells or lysates may run through a third protein. Some results given as binding are weak or reduced against the parent protein; the word gives no strength. For some of these results: Where a sequence is shown, tags or fusion partners need not be part of it. Each block holds one substance with its values, some of them ahead of it.

Chains of the proteins cited; added tags and fusions are not shown. Lines headed by an entry give the natural chain unless they say otherwise; changes in a name come on top. A line that says so, or that is headed by a name, gives the form on record, which may keep a tag or linker. Residues count along the entry.
UniProt P35609: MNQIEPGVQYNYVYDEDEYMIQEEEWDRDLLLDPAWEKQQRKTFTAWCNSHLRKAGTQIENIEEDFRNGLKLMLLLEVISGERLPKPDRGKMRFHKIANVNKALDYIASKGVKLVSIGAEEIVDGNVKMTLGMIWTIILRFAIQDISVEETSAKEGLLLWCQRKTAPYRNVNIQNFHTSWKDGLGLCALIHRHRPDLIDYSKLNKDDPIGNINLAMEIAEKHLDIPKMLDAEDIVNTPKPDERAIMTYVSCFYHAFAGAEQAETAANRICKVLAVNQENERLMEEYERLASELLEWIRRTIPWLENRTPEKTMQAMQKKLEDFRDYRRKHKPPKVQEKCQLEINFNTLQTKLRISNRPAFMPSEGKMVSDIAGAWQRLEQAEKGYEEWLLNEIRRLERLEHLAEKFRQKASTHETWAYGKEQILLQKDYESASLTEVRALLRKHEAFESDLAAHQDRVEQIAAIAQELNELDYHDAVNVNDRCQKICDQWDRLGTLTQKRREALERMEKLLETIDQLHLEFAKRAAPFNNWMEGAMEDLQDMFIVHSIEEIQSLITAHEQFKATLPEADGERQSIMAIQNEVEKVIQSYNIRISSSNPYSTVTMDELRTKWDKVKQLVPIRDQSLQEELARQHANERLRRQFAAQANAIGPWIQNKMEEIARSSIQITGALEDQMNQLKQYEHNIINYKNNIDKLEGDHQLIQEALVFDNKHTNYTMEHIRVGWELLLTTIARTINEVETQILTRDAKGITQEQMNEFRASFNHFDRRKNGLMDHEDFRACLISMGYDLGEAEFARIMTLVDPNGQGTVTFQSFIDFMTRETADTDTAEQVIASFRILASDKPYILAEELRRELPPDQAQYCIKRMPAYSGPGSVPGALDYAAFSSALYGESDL
HA-tagged HuActSkl (amino acid sequence 333-894), pHA-Act, expressed in COS7 cells: residues 333-894 of P35609
GST-HuActSkl (423-653): residues 423-653 of P35609
GST-HuActSkl (486-607), spectrin-like repeat 3 of HuActSkl: residues 486-607 of P35609
GST-HuActSkl (653-837): residues 653-837 of P35609
UniProt P12814, residues 479-600: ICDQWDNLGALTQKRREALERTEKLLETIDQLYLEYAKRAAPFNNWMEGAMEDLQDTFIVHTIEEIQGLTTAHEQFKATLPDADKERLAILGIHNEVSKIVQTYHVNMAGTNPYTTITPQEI

Key:
[1] = molecular target: GST-PKN-N (GST fused to the amino-terminal region of PKN, amino acid sequence 1-540) (human) (UniProt Q16512); experiment: GST pull-down of 35S-labeled full-length HuActSkl with GST-PKNN1, 10 µM PI4,5P2
[2] = molecular target: GST-PKN-N (GST fused to the amino-terminal region of PKN, amino acid sequence 1-540) (human) (UniProt Q16512); experiment: GST pull-down of 35S-labeled full-length HuActSkl with GST-PKNN1, no PI4,5P2
[3] = molecular target: GST-HuActSkl (486-607), spectrin-like repeat 3 of HuActSkl (human) (UniProt P35609); experiment: GST pull-down of 35S-labeled PKNN2 (FIG. 46, repeat 3 of HuActSkl)
[4] = molecular target: GST-HuActSkl (486-607), spectrin-like repeat 3 of HuActSkl (human) (UniProt P35609); experiment: GST pull-down of 35S-labeled protein; washes with 0.5% Triton X-100/0.5 M NaCl
[5] = molecular target: GST-HuActSkl (653-837) (human) (UniProt P35609); experiment: as above
[6] = molecular target: GST-HuActSkl (423-653) (human) (UniProt P35609); experiment: as above
[7] = molecular target: T1, GST-NFMhr (GST fused to the head-rod domain, amino acid sequence 1-411, of human NFM) (human) (UniProt P07197); experiment: GST pull-down of 35S-labeled in vitro translated PKNN2
T1 sequence (looked up): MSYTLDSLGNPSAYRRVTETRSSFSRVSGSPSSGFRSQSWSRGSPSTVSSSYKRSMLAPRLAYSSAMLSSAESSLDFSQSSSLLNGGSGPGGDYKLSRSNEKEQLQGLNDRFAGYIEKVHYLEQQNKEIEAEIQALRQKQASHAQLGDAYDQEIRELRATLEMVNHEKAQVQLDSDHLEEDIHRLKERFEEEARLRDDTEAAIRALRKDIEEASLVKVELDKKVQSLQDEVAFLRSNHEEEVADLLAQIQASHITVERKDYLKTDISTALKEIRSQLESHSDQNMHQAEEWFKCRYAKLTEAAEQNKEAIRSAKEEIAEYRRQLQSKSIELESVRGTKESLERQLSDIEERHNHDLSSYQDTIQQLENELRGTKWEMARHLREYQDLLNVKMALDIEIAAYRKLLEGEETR

[8] = molecular target: GST-HuActNm (amino acid sequence 479-600), spectrin-like repeat 3 of HuActNm (human) (UniProt P12814); experiment: as above
[9] = molecular target: GST-HuActNm (amino acid sequence 479-600), spectrin-like repeat 3 of HuActNm (human) (UniProt P12814); experiment: GST pull-down of 35S-labeled PKNN2 (FIG. 46, repeat 3 of HuActNm)
[10] = molecular target: T2, GST-NFL#21 (GST fused to the amino acid sequence 1-349 of human NFL, head-rod domain) (human) (UniProt P07196); experiment: GST pull-down of 35S-labeled in vitro translated protein, autoradiography
T2 sequence (looked up): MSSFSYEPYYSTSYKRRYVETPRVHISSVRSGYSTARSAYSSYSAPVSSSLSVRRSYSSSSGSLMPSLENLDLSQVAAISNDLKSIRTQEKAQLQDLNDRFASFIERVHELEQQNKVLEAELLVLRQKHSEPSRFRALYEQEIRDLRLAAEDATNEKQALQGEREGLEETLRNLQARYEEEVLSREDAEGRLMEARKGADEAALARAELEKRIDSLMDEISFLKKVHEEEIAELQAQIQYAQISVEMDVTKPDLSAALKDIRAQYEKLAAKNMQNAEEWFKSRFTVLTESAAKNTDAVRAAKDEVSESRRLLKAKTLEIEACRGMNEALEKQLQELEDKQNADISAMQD

[11] = molecular target: GST-HuActSkl (423-653) (human) (UniProt P35609); experiment: GST pull-down of 35S-labeled protein (lane 18)
[12] = molecular target: GST-HuActSkl (653-837) (human) (UniProt P35609); experiment: GST pull-down of 35S-labeled protein (lane 19)
[13] = molecular target: HA-tagged HuActSkl (amino acid sequence 333-894), pHA-Act, expressed in COS7 cells (human) (UniProt P35609); experiment: co-immunoprecipitation with 12CA5 from co-transfected COS7 cells, immunoblot with αC6

binding [1]: binds
binding [2]: binds
Substance: 35S-labeled in vitro translated full-length HuActSkl (from UniProt P35609 1-894)

binding [3]: binds
binding [4]: binds
binding [5]: binds
binding [6]: binds
binding [7]: binds
binding [8]: binds
binding [9]: binds
binding [10]: binds
Substance: PKNN2 (N-terminal region of PKN, amino acid sequence 1-474), 35S-labeled, in vitro translated (from UniProt Q16512 1-474)

binding [11]: binds
binding [12]: binds
Substance: PKNΔBal (amino acid sequence 136-474 of PKN), 35S-labeled, in vitro translated (from UniProt Q16512 136-474)

Substance: full-length human PKN expressed from pMhPKN3 in COS7 cells (from UniProt Q16512 1-942) (enzyme)
binding [13]: binds
